# Measured values as given in the supplement of paper PMC10735217.
# Structures can show the parent of a compound that is named as a salt. The list shows a part of the results. This data set is noisy: repeats of one test often differ as much as different tests do.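 Human kidney-derived cells stably carry a construct in which eight TEAD-binding elements drive luciferase, measured by luminescence in a drug-repurposing library screen. A hit is any compound whose signal exceeds the plate mean by more than five robust Z scores.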
# Test system: HEK293A TEAD-LUC reporter
# Experiment: TEAD-luciferase reporter activity (YAP activation), robust Z score vs plate; higher = stronger YAP/TEAD activation
# Conditions: 24 h
SMILES,TEAD-luciferase reporter activity (compound concentration: 200 nM),TEAD-luciferase reporter activity (compound concentration: 2 uM),TEAD-luciferase reporter activity (compound concentration: 10 uM)
O=P(O)(O)[C@H](CCCc1cccc(Oc2ccccc2)c1)S(=O)(=O)O,inactive: 0.0846,inactive: -0.535,inactive: 4.24
C/C(=C\c1ccccc1)c1ccc2c(c1)C(C)(C)CCC2(C)C [Temarotene],inactive: -0.657,inactive: 0.0587,inactive: -0.365
O=C1[O][Pt]2([NH]CC3(CCOCC3)C[NH]2)[O]C(=O)C12CCC2 [enloplatin],inactive: 2.12,inactive: -0.369,inactive: 2.27
O=C(O)Cc1ccc(C(=O)C2CC2)cc1,inactive: 0.548,inactive: 0.0813,inactive: 1.87
CC(C)c1cc(C(C)C)c(CC(=O)NS(=O)(=O)Oc2c(C(C)C)cccc2C(C)C)c(C(C)C)c1,inactive: -1,inactive: 1.63,inactive: -0.94
CC(=O)NC[C@H]1CN(c2ccc(-c3ccno3)c(F)c2)C(=O)O1,inactive: -0.899,inactive: -0.664,inactive: 0.554
CC(C)(Oc1ccc(Cl)cc1)C(=O)OCCN1CCN(CCCN2c3ccccc3Sc3ccc(C(F)(F)F)cc32)CC1,inactive: 2.21,inactive: 2.17,inactive: -0.526
C=CCN1CCc2nc(N)sc2CC1 [talipexole],inactive: -1.35,inactive: 1.86,inactive: 4.8
O=C(CO)[C@@H](O)[C@H](O)[C@H](O)CO,inactive: 0.872,inactive: -1.8,inactive: -0.179
CN1CCC(C(=O)N2Cc3ccccc3CC3(CCCCN3CC3CCNC3)C2)CC1 (centres undefined),inactive: -0.294,,inactive: -0.0962
O=C(O)c1cc(NCc2c(F)c(F)c(C(F)(F)F)c(F)c2F)ccc1O,inactive: 1.15,inactive: -1.23,inactive: 1.13
CSc1ccc(SC(P(=O)([O-])O)P(=O)([O-])O)cc1,inactive: -1.24,inactive: 0.456,inactive: 0.264
CCOC(=O)C1CCN(c2nc(N(C)S(=O)(=O)c3ccc(C)cc3)ccc2[N+](=O)[O-])CC1,inactive: -1.02,inactive: -1.85,inactive: 2.96
O=C1NCc2ccccc2CC12CCCN2Cc1ccccc1Cl (centres undefined),inactive: 0.101,,inactive: -0.349
Cc1ccc(=O)n(-c2ccccc2)c1 [Pirfenidone],inactive: 4.69,,inactive: -1.24
Cc1ccc(=O)n(-c2ccccc2)c1 [pirfenidone],,inactive: 1.63,
Cc1ncc2c(c1O)COC2c1ccc(Cl)cc1 (centres undefined) [cicletanine hydrochloride],inactive: -0.0815,inactive: 2.01,inactive: 0.878
O=C(Nc1cccc2ccccc12)C1CCN(C(=O)Cn2c(=O)sc3ccc(Cl)cc32)CC1,inactive: -0.158,inactive: -0.329,inactive: 4.07
OC[C@H]1O[C@@H](O[C@@H]2[C@@H](CO)O[C@@](O)(CO)[C@H]2O)[C@H](O)[C@@H](O)[C@H]1O [Lactulose],inactive: 0.608,inactive: 0.0213,active: 5.38
C[C@@]12CC[C@@H]3[C@@](CC[C@H]4[C@@]3(C)CCC[C@@]4(C)C(=O)O)(CC1=O)C2 [Isosteviol],inactive: 2.67,inactive: 0.408,inactive: 1.05
CO[C@@H]1[C@H](OC(=O)/C=C/C=C/C=C/C=C/C(=O)O)CC[C@]2(CO2)[C@H]1[C@@]1(C)O[C@@H]1CC=C(C)C [Fumagillin],active: 7.01,inactive: -2.19,inactive: -1.2
CN(C)CCn1nnnc1SCC1=C(C(=O)O)N2C(=O)[C@@H](NC(=O)Cc3csc(N)n3)[C@H]2SC1 [cefotiam],,inactive: -0.986,
CN(C)CCn1nnnc1SCC1=C(C(=O)O)N2C(=O)[C@@H](NC(=O)Cc3csc(N)n3)[C@H]2SC1 [Cefotiam dihydrochloride hydrate],inactive: -0.731,,inactive: 1.48
CC(C)(C)C(=O)C(Oc1ccc(Cl)cc1)n1ccnc1 (centres undefined) [Climbazole],inactive: 0.887,inactive: -1.02,inactive: 1.94
CCOC(=O)CCc1nsnc1OCC(O)CNCC(C)C (centres undefined),inactive: -0.181,inactive: -1.2,inactive: 0.701
CCOc1ccc(Cc2cc([C@]34OC[C@](CO)(O3)[C@@H](O)[C@H](O)[C@H]4O)ccc2Cl)cc1 [ertugliflozin],inactive: -1.49,inactive: -0.863,active: 5.19
COC(=O)c1ccccc1C(=O)N1CCSC1,inactive: -0.446,inactive: 1.32,inactive: 0.526
Cc1ccc(Cc2cc3c(=O)n([C@H]4CCCC[C@@H]4O)cnc3c3ccccc23)cn1,inactive: -1.6,inactive: -0.971,inactive: 3.45

# Record cards, from the list above:
# C[C@@]12CC[C@@H]3[C@@](CC[C@H]4[C@@]3(C)CCC[C@@]4(C)C(=O)O)(CC1=O)C2 [Isosteviol] reads TEAD-luciferase reporter activity (compound concentration: 200 nM): inactive: 2.67; TEAD-luciferase reporter activity (compound concentration: 2 uM): inactive: 0.408; TEAD-luciferase reporter activity (compound concentration: 10 uM): inactive: 1.05
# CC(C)(C)C(=O)C(Oc1ccc(Cl)cc1)n1ccnc1 (centres undefined) [Climbazole] reads TEAD-luciferase reporter activity (compound concentration: 200 nM): inactive: 0.887; TEAD-luciferase reporter activity (compound concentration: 2 uM): inactive: -1.02; TEAD-luciferase reporter activity (compound concentration: 10 uM): inactive: 1.94
# Cc1ccc(=O)n(-c2ccccc2)c1 [pirfenidone] reads TEAD-luciferase reporter activity (compound concentration: 2 uM): inactive: 1.63
# C=CCN1CCc2nc(N)sc2CC1 [talipexole] reads TEAD-luciferase reporter activity (compound concentration: 200 nM): inactive: -1.35; TEAD-luciferase reporter activity (compound concentration: 2 uM): inactive: 1.86; TEAD-luciferase reporter activity (compound concentration: 10 uM): inactive: 4.8

# Going on with the list:

SMILES,TEAD-luciferase reporter activity (compound concentration: 200 nM),TEAD-luciferase reporter activity (compound concentration: 2 uM),TEAD-luciferase reporter activity (compound concentration: 10 uM)
C=C1/C(=C\C=C2/CCC[C@]3(C)[C@@H]([C@H](C)CC[C@@H](O)C(C)C)CC[C@@H]23)C[C@@H](O)C[C@@H]1O [Tacalcitol],inactive: -0.709,inactive: -0.13,inactive: 3.59
Cc1cccc(C)c1NC(=O)C1(N(C)C)CCN([C@H]2CCCC[C@@H]2O)CC1,inactive: -0.455,inactive: -1.37,inactive: -0.776
CCNCc1nc2c(O)c(Cl)cc(Cl)c2c(=O)n1C,inactive: -0.929,inactive: -1.78,inactive: -0.0344
CC1(C)CN(c2cccc[n+]2[O-])c2cc([N+](=O)[O-])ccc2O1,inactive: -1.67,inactive: 3.3e-05,inactive: 4.61
CC(C)OC(Cc1cccc(OC[C@H](F)COc2ccc(Cl)cc2C#N)c1)C(=O)O (some centres undefined),inactive: -1.38,inactive: 1.52,inactive: 0.438
CN1CCC=C(c2nc(N)sc2Cl)C1,inactive: 4.6,inactive: -0.442,inactive: -0.092
Cc1cccc(-c2cccc(CN3CCC(NC(=O)c4ccccc4F)CC3)c2)c1,inactive: 0.0316,,inactive: -0.191
CCCC(=O)c1cnc2c(OCCS(C)=O)cccc2c1Nc1ccccc1C (centres undefined),inactive: 0.616,inactive: -1.9,inactive: -0.243
C/C=C/C[C@@H](C)[C@@H](O)[C@H]1C(=O)N[C@@H](CC)C(=O)N(C)CC(=O)N(C)[C@@H]([C@@H](C)CC)C(=O)N[C@@H](C(C)C)C(=O)N(C)[C@@H](CC(C)C)C(=O)N[C@@H](C)C(=O)N[C@H](C)C(=O)N(C)[C@@H](CC(C)C)C(=O)N(C)[C@@H](CC(C)C)C(=O)N(C)[C@@H](C(C)C)C(=O)N1C,inactive: -0.758,inactive: 0.838,inactive: -0.221
CN(C(=O)C(Cl)Cl)c1ccc(OC(=O)c2ccco2)cc1 [diloxanide furoate],inactive: -0.468,inactive: -1.67,inactive: 0.905
CCCCNC(=O)c1ccc(Cl)cc1O,inactive: -0.702,inactive: -0.348,inactive: -1.23
Cc1ccc2oc(N3CCC(N)CC3)nc2n1,inactive: -0.685,inactive: -0.281,inactive: -1.4
Cc1cncn1CC#CCN1CCCC1=O,inactive: -0.0942,inactive: 0.768,inactive: -0.699
Cc1cc(C(=O)NC2CC(C)(C)Oc3nc(-c4ccc(Cl)cc4Cl)c(-c4ccc(Cl)cc4)cc32)n[nH]1 (centres undefined),inactive: -1.39,inactive: -1.2,inactive: -0.031
COc1ccc(CCNCC(O)COc2ccc(NN=C(C)C)nn2)cc1OC (centres undefined) [dramedilol],inactive: -0.759,inactive: -0.806,inactive: -1.04
CCNc1c(C)cc(Cc2cnc(N)nc2N)c2cccnc12,inactive: -1.75,inactive: 0.314,inactive: 1.06
COCCc1ccc(OCC(O)CNC(C)C)cc1 (centres undefined) [metoprolol succinate CDT],,inactive: -0.172,
"COCCc1ccc(OCC(O)CNC(C)C)cc1 (centres undefined) [metoprolol succinate CDT,SCOLR]",inactive: -1.08,,inactive: -0.983
O=S(=O)(c1ccccc1)N(CC(F)(F)F)c1ccc(C(O)(C(F)(F)F)C(F)(F)F)cc1,inactive: -0.239,inactive: -0.831,inactive: 2.87
CC(C)[C@H](N)C(=O)OCCOCn1cnc2c(=O)[nH]c(N)nc21 [valaciclovir],inactive: -1.55,inactive: 0.753,inactive: -2.56
O=C(CC(Cc1ccccc1)C(=O)O)c1ccc(F)cc1 (centres undefined),inactive: -1.32,inactive: 1.82,inactive: 0.457
C[C@@H]1OC(O)[C@@H](F)[C@H](O)[C@@H]1O (some centres undefined) [2-Fluorofucose],inactive: 0.472,inactive: -0.51,inactive: -0.797
N#C/C(=C1/SC[C@@H](c2ccc(Cl)cc2Cl)S1)n1ccnc1 [Luliconazole],inactive: -2.23,,inactive: 0.118
N#C/C(=C1/SC[C@@H](c2ccc(Cl)cc2Cl)S1)n1ccnc1 [luliconazole],,inactive: 0.471,
CCCc1c(OCCCSc2nnc(SCC(=O)O)s2)ccc(C(C)=O)c1O,inactive: 0.584,inactive: -0.997,inactive: 1
CCOc1ccc(CC(CN(CCN(CC(=O)O)CC(=O)O)CC(=O)O)N(CC(=O)O)CC(=O)O)cc1 (centres undefined) [Gadoxetate disodium],active: 5.69,,inactive: 3.86
CCOC(=O)Oc1ccc(CCNC(=O)[C@H](CCSC)NC(C)=O)cc1OC(=O)OCC,inactive: -0.0584,inactive: -0.516,inactive: -0.907
